Assay results taken from PubChem BioAssay AID1224854 (National Center for Advancing Translational Sciences (NCATS), 2016).
This list was built around the results that the source calls inconclusive (neither active nor inactive); the mix of calls is not that of the screen. A potency beside an inconclusive call is a rough fit, not a confirmed value. Calls of active or inactive are those of the source. Calls follow the shape of the dose curve; as a rule, active = well fitted activation curve with a large enough effect; inconclusive = small, poorly fitted or top-dose-only effect; inactive = flat fitted curve, though single readings scatter.

assay: Cell viability assay for measurement of the protective activity of small molecules against cell death caused by Zika virus infection in human astrocytoma cells; settings: SNB-19 Zika virus cytoprotection, ATP luminescence, 72 h; series mostly up to 46.1 µM
From the text: National Center for Advancing Translational Sciences [NCATS] Johns Hopkins University School of Medicine Florida State University Assay Overview: Zika virus infection causes cell death in certain cell types including human neural progenitor cells (hNPCs), astrocytes, and astrocytoma cell line (SNB-19). This cell viability assay measures the ATP content (level) in human astrocytoma cells (SNB-19) using a luminescence readout that is proportional to viable cell numbers. Decrease in the luminescence signal after Zika virus infection indicates the cell death caused by Zika virus. Small molecule inhibitors […] the decreased luminescence signal after Zika virus infection, indicating the protective effect of that small molecule on the cell death caused by Zika virus infection. This observed protective effect of small molecules against Zika virus induced cell death may result from inhibition of virus replication or cellular response to the virus infection.
Assay Protocol Summary: The medium for SNB-19 cells is composed of RPMI 1640 (ATCC, Cat.# 30-2001), 10% fetal bovine serum (FBS) (GE healthcare Life Sciences, Cat.# SH30071.03), and 1% Pen/Strep (Gibco, Cat.# 15140-122). The ATP content assay kit (PerkinElmer, Cat.# 6016731) was used to determine cell viability. The reagent was reconstituted and prepared as described by the manufacturer. Cells were seeded in 384- or 1536-well assay plates and cultured at 37 C with 5% CO2 for 16 to 20 hours. The typical cell seeding density in the 1536-well plate assay is 250 cells/well in 3ul medium for SNB-19 cells in tissue culture treated plates. Compounds were added to cells and incubated for one hour before addition of ZIKV solution to cells (2 FFU/cell). After incubation at 37 C with 5% CO2 for 72 hours, the reagent mixture of the ATP content assay kit was added to each well, followed by incubation at room temperature for 10 minutes. The luminescence intensity of the assay plates was measured using a ViewLux plate reader (PerkinElmer). […] The percentage inhibitions of the decreased cell viability by small molecule inhibitors were then calculated.

Row | SMILES | Potency
1 | O=C1C=CC[C@@H]2[C@H]3CCCN4CCC[C@@H](CN12)[C@@H]34 | inconclusive: 19.5 µM [activator, single point]
2 | COc1cccc2c1C(=O)c1c(O)c3c(c(O)c1C2=O)C[C@@](O)(C(=O)CO)CC3OC1CC(N2CCOC(OC)C2)C(O)C(C)O1 (stereo not given in full) | active: 0.388 µM
3 | CC(C)[C@H]1C(=O)N[C@H](CO)Cc2c[nH]c3cccc(c23)N1C | active: 2.45 µM
4 | CC(C)N[C@@H]1CCn2c(=O)[nH]c3cccc(c32)[C@@H]1O | inactive
5 | S=C(SSC(=S)N1CCCCC1)N1CCCCC1 | active: 17.3 µM
6 | COC1(CS(=O)c2ccccc2)CCN(CCc2c[nH]c3ccc(F)cc23)CC1 (stereo not given) | inconclusive: 17.3 µM [activator, partial curve, poor fit]
7 | CC[n+]1c(-c2ccccc2)c2cc(N)ccc2c2ccc(N)cc21 | inconclusive: 1.38 µM [activator, single point]
8 | CC(O)CN1CCN(CC(=O)[O-])CCN(CC(=O)[O-])CCN(CC(=O)[O-])CC1.[Gd+3] (stereo not given) | inconclusive: 0.975 µM [activator, full curve, poor fit]
9 | Oc1ccc([C@H]2CNCc3c2ccc(O)c3O)cc1O | inconclusive: 12.3 µM [activator, partial curve]
10 | CC(C)[N+](C)(CCC(C(N)=O)(c1ccccc1)c1ccccc1)C(C)C | inconclusive: 30.8 µM [activator, single point]
